From paper PMC12501277, “The deubiquitylase OTUB1 drives gemcitabine resistance in pancreatic cancer by enhancing pyrimidine metabolism through modulating DHODH mRNA stability” (Cell Death & Disease, 2025)
Results are given in words; binding and its absence hold for the method and conditions named. Binding seen in cells or lysates may run through a third protein. Some binding calls cover weakened binding; strength is not graded here.

By UniProt entry, the sequences of proteins in these tests, tags left out. Where a name states a change or a piece, a line headed by the entry shows the natural chain unless it says otherwise.
UniProt Q96FW1: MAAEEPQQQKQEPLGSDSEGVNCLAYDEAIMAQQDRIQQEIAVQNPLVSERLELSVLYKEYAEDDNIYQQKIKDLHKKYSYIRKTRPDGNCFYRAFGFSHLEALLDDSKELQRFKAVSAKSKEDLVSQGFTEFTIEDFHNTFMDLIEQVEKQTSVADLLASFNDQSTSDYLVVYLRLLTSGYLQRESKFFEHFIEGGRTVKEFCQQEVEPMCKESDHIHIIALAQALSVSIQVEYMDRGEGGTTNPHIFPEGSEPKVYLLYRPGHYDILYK
UniProt O00571: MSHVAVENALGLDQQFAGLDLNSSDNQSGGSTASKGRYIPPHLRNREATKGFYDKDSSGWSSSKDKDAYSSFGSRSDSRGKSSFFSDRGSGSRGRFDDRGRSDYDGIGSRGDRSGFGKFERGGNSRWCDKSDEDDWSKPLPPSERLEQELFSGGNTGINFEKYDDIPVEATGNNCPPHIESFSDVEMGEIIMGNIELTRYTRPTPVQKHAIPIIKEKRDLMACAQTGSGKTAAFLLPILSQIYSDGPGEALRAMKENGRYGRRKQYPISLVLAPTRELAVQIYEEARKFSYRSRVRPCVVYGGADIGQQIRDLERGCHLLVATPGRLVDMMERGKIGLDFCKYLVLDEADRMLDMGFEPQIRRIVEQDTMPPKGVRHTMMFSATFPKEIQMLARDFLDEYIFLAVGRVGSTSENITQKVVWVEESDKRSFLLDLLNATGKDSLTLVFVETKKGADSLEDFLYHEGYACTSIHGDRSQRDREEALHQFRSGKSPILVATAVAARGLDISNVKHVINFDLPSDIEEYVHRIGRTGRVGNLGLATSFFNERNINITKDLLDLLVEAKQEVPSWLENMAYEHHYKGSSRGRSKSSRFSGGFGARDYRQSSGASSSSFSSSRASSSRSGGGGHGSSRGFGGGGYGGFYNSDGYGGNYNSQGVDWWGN

What was measured:
Flag-OTUB1 (human) = Flag-OTUB1 (human) (UniProt Q96FW1); experiment: co-IP; HEK-293T cells transfected with Flag-OTUB1 and HA-DDX3X (FL or indicated mutant construct); total cell lysates, IP-western blot
[1] = target: OTUB1 (human (endogenous in AsPC-1)) (UniProt Q96FW1); experiment: co-IP; endogenous proteins; AsPC-1 cell lysates with antibody to OTUB1, DDX3X or IgG control and protein A/G-Sepharose beads, western blot

binding (Flag-OTUB1 (human))	binding [1]	Substance
binds	–	HA-DDX3X (FL) (from UniProt O00571 1-662)
binds	–	HA-DDX3X N-terminal region (aa 1-413) (from UniProt O00571 1-413) (domain or fragment)
–	binds	DEAD-box helicase 3 X-linked (DDX3X) (from UniProt O00571 1-662)
